Assay results as given in the supplement of paper PMC12067093, “Discovery and optimisation of a covalent ligand for TRIM25 and its application to targeted protein ubiquitination” (Chemical Science, 2025).
This is one part of the list.

Protein sequences, listed by entry. Tags and fused reporters are not part of them. Lines headed by an entry give the natural chain unless they say otherwise; changes in a name come on top.
UniProt Q9C0E2: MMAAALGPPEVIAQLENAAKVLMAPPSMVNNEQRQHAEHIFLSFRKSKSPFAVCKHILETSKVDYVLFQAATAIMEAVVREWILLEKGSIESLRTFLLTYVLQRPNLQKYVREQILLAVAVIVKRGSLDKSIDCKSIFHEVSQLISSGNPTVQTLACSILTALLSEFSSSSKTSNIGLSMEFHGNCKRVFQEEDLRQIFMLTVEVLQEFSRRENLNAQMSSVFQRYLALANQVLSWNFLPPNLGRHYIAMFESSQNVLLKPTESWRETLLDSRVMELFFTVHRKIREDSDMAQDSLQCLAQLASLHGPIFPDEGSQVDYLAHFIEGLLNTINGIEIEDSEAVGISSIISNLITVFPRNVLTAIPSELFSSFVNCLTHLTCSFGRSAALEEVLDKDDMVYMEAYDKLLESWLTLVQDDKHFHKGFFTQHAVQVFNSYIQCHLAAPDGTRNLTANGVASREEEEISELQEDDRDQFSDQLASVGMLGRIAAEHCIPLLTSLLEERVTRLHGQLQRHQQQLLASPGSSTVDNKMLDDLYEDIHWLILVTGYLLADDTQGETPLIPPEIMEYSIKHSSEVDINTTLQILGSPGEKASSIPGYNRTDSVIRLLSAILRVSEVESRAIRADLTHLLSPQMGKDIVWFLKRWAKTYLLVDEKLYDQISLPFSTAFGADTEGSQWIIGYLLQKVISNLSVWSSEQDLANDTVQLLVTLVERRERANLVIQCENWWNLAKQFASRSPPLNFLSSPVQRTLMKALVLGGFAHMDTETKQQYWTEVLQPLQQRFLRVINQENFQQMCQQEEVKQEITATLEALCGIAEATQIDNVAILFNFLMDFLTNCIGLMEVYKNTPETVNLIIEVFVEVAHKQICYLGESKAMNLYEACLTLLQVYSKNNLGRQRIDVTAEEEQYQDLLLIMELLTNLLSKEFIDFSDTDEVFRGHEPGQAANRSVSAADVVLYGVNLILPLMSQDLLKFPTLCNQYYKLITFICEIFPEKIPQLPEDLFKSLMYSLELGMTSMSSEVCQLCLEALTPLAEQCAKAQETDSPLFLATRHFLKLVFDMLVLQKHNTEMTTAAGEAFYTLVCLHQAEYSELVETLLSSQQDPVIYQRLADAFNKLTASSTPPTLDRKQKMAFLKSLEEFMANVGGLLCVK
UniProt Q9NUD5: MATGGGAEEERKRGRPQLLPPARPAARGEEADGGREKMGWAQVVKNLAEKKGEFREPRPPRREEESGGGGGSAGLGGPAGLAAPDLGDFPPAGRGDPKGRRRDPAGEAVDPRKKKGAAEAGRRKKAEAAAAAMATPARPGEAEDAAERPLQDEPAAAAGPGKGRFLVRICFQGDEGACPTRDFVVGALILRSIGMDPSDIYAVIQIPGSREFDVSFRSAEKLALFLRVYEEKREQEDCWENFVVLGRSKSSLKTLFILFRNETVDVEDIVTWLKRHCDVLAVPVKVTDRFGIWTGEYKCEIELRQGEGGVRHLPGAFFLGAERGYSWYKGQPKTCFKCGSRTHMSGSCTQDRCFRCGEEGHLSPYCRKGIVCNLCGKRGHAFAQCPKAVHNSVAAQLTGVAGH
UniProt O75152: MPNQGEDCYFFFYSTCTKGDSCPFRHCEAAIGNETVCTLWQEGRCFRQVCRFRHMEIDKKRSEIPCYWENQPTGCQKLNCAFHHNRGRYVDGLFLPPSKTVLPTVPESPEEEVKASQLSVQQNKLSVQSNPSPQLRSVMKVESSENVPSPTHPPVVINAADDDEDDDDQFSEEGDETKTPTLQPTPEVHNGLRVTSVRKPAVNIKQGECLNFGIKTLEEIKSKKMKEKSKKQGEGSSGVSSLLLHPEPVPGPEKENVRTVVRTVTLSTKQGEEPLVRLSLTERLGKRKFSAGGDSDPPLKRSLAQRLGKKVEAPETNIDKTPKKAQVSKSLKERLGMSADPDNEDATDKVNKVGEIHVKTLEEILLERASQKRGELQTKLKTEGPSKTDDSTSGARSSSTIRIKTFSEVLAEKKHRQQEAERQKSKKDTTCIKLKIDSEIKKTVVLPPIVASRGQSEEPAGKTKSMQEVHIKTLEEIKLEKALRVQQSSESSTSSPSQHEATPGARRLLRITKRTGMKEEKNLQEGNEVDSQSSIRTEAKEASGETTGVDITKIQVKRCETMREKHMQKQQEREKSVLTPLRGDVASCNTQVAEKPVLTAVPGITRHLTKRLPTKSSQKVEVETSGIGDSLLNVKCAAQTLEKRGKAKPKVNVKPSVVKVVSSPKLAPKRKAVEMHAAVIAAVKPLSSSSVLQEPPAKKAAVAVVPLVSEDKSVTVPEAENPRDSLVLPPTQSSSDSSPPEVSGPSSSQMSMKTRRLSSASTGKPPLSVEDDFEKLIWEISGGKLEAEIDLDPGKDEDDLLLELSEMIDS
UniProt P27348: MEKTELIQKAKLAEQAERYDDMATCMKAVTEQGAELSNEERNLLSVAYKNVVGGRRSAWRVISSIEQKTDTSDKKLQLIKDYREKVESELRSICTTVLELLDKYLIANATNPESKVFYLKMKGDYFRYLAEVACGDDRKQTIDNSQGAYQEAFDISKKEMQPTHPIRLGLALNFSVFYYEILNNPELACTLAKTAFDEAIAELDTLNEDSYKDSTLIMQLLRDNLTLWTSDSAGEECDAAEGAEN
UniProt Q96TA2: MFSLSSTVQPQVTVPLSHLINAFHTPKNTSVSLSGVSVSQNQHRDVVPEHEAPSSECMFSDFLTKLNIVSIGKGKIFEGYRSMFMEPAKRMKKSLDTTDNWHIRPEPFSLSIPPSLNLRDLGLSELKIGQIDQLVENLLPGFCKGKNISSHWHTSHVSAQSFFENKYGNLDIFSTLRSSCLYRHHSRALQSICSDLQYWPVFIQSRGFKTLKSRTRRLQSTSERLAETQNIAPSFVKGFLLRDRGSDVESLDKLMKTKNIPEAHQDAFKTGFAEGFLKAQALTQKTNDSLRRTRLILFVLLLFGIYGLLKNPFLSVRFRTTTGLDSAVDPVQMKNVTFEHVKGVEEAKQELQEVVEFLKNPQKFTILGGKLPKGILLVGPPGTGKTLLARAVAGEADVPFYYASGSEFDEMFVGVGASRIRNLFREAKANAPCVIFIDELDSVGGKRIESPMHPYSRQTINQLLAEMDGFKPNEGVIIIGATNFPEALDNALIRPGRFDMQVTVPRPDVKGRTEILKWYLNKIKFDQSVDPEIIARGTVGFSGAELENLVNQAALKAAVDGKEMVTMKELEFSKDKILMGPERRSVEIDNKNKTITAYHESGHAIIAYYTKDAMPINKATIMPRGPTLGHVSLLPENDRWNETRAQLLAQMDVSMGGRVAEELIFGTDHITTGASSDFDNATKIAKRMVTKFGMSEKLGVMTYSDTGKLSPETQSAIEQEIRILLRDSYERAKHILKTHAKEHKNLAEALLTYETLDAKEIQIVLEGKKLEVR
UniProt Q9UIA9: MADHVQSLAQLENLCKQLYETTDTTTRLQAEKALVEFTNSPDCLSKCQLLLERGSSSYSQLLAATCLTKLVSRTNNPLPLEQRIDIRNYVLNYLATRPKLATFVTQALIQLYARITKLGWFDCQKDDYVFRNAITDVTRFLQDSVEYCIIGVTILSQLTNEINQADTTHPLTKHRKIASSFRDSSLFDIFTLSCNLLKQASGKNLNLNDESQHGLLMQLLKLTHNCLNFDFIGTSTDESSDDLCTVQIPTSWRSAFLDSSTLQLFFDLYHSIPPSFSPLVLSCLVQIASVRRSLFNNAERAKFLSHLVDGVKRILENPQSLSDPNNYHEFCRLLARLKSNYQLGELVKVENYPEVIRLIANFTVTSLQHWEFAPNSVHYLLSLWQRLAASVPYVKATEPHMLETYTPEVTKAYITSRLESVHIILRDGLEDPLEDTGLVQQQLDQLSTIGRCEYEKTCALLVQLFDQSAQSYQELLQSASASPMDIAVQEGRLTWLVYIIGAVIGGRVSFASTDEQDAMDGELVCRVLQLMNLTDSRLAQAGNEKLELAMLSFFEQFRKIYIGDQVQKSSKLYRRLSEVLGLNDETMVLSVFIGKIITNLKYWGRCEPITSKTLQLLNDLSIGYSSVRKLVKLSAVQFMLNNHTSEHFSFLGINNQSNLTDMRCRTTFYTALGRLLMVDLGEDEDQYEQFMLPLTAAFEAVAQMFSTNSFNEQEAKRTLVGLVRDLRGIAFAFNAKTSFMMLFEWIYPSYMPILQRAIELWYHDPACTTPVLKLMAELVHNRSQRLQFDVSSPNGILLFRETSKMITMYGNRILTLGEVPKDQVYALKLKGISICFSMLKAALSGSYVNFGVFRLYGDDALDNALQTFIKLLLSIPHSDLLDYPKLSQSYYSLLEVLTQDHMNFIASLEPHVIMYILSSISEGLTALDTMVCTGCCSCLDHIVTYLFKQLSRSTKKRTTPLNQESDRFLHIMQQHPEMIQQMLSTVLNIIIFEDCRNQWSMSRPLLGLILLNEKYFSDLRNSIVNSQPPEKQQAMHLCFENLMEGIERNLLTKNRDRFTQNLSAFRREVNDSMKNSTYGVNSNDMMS
UniProt Q9H0D6: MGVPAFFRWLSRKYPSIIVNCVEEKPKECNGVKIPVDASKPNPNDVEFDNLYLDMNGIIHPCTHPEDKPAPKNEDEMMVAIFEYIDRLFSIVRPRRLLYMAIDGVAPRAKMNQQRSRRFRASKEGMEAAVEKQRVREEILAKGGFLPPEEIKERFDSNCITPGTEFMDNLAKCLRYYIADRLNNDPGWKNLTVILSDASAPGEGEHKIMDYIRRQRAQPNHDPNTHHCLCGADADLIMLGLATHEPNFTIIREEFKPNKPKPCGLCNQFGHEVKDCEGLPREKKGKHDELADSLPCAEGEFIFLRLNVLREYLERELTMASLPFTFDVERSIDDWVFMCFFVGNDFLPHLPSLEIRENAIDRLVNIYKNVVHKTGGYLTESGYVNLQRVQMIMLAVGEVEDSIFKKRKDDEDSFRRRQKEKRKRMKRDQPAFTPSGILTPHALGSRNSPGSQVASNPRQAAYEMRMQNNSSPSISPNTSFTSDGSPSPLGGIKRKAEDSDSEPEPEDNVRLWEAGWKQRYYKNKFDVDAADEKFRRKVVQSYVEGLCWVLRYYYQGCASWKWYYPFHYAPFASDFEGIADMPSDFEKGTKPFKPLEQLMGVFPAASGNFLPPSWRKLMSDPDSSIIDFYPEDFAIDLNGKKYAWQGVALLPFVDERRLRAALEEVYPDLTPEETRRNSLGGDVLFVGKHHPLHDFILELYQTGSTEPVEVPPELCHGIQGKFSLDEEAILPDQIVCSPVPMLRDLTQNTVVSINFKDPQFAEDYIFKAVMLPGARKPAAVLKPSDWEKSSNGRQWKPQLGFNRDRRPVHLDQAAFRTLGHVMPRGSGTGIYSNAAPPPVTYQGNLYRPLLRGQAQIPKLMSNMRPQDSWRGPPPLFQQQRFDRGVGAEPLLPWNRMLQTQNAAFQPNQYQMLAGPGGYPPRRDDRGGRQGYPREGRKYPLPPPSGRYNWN
UniProt P25490, whole entry, looked up: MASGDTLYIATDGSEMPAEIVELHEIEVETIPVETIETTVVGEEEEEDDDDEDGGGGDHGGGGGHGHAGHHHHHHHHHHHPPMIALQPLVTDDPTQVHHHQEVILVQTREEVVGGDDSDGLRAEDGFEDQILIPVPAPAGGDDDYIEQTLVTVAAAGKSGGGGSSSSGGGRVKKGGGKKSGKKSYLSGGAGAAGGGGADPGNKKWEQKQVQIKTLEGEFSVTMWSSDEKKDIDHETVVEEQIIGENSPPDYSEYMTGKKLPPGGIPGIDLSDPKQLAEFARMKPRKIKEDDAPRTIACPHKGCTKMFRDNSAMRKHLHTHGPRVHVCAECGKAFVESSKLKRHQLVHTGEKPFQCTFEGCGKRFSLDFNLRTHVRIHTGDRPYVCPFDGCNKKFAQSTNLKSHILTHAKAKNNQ
UniProt P13010: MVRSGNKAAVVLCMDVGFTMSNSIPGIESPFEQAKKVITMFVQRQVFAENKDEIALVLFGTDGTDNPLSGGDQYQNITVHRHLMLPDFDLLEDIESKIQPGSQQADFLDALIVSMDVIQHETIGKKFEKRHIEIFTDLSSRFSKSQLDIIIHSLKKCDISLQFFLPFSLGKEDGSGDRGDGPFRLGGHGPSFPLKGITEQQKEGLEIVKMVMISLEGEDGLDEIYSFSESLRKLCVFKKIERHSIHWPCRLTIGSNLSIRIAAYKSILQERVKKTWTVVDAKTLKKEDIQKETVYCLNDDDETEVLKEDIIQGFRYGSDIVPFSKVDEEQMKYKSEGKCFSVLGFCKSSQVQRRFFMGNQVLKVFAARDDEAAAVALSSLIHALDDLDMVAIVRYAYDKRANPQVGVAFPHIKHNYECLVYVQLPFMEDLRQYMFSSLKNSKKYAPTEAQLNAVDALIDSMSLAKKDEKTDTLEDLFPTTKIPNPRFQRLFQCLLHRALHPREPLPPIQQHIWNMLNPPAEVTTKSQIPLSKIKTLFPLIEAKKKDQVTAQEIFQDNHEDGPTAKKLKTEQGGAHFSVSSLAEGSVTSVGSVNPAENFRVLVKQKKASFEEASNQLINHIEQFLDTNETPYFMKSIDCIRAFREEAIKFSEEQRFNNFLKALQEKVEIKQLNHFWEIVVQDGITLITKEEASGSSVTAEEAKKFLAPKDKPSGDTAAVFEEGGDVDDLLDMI

Compound: Cc1cc(ccc1-c1ccccc1)C(=O)N1CCCN(CC1)C(=O)CCl [compound 10]
Assay: probe-labelled cysteine peptide fold change vs DMSO (competition) (log2 fold change); higher = less target engagement (more negative = stronger competition)
Conditions: THP-1, incubation time: 4 h
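Also: competitive profiling in live THP-1 cells: cysteine peptides tagged with an iodoacetamide desthiobiotin (IA-DTB) probe, intensity after compound treatment relative to DMSO-treated cells.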

Target	probe-labelled cysteine peptide fold change (10 µM)	probe-labelled cysteine peptide fold change (50 µM)
ZC3HAV1_Q7Z2W4_272_SCTPSPDQISHR (UniProt Q7Z2W4)	-0.00132	0.109
ZFAND1_Q8TCF1_44_ESHGCPEVTVINER (UniProt Q8TCF1)	-0.0255	-0.0191
ZFAND2A_Q8N6M9_84_GQIPDVVVGDHIDRDCDSHPGK (UniProt Q8N6M9)	1.7	3.88
XPO4_Q9C0E2_1149_SLEEFMANVGGLLCVK (UniProt Q9C0E2)	0.366	-0.106
XRCC6_P12956_398_EVAALCR (UniProt P12956)	-0.0233	0.277
ZADH2_Q8N4Q0_55_DCPVPLPGDGDLLVR (UniProt Q8N4Q0)	-0.148	0.0224
ZCCHC3_Q9NUD5_277_HCDVLAVPVK (UniProt Q9NUD5)	0.209	0.242
ZCCHC3_Q9NUD5_375_GIVCNLCGK (UniProt Q9NUD5)	0.0461	0.0417
ZC3HAV1_Q7Z2W4_867_FTEGNITYTSPPPQFDSCVDTR (UniProt Q7Z2W4)	-0.143	-0.069
XRN1_Q8IZH2_598_NQHSECLMCWYDRDTEFIYPSPWPEK (UniProt Q8IZH2)	-0.137	0.296
ZC3H11A_O75152_588_GDVASCNTQVAEKPVLTAVPGITR (UniProt O75152)	-0.2	-0.189
ZFAND5_O76080_170_CGNLFCGLHR (UniProt O76080)	0.442	0.48
YARS2_Q9Y2Z4_413_EAPFSEFFLDPGTSVLDTCRK (UniProt Q9Y2Z4)	-0.161	-0.368
YWHAB_P31946_191_ACSLAK (UniProt P31946)	-0.00672	-0.176
XPO4_Q9C0E2_439_GFFTQHAVQVFNSYIQCHLAAPDGTR (UniProt Q9C0E2)	-0.226	-0.0306
YWHAQ_P27348_94_SICTTVLELLDK (UniProt P27348)	-0.00239	0.0692
ZBTB33_Q86T24_32_GHGLFCDVTVIVEDR (UniProt Q86T24)	0.122	0.202
ZC3H13_Q5T200_42_LGPSTGSTAETQCR (UniProt Q5T200)	-0.0682	-0.125
YWHAQ_P27348_25_YDDMATCMK (UniProt P27348)	-0.185	-0.108
YME1L1_Q96TA2_433_ANAPCVIFIDELDSVGGKR (UniProt Q96TA2)	0.0418	-0.109
ZC3H14_Q6PJT7_647+652_CTKPDCPFTHVSR (UniProt Q6PJT7)	0.172	-0.263
ZC3H13_Q5T200_1592_ASLLSNLGPCCK (UniProt Q5T200)	-0.166	-0.471
XPO7_Q9UIA9_331_ILENPQSLSDPNNYHEFCR (UniProt Q9UIA9)	0.0419	0.327
YTHDC2_Q9H6S0_472_EMDACLSDIWLHK (UniProt Q9H6S0)	0.18	0.25
ZFAND1_Q8TCF1_64_LKTDQHTSYPCSFK (UniProt Q8TCF1)	-0.0542	-0.645
XPOT_O43592_650_QASLADCLNHAVGFASR (UniProt O43592)	-0.105	0.0474
XRCC1_P18887_615_WIYSCNEK (UniProt P18887)	0.0968	-0.0466

Target	probe-labelled cysteine peptide fold change (10 µM)	probe-labelled cysteine peptide fold change (50 µM)
ZBTB11_O95625_737_YLCSVCGK (UniProt O95625)	0.0656	0.437
ZFAND2B_Q8WV99_84_AVGEHIDRDCR (UniProt Q8WV99)	-0.0906	-0.195
YY1AP1_Q9H869_689_AHMNVDIACAVADGENAFQGLEPK (UniProt Q9H869)	-0.0161	0.141
ZFAND1_Q8TCF1_28+33_DFLPFVCDDCSGIFCLEHR (UniProt Q8TCF1)	-0.295	-0.0113
XRN2_Q9H0D6_296_GKHDELADSLPCAEGEFIFLR (UniProt Q9H0D6)	0.0027	0.00289
ZC3H11A_O75152_209_QGECLNFGIK (UniProt O75152)	-0.0872	-0.122
YARS_P54577_519_LGSISCK (UniProt P54577)	-0.249	-0.105
YY1_P25490_390_IHTGDRPYVCPFDGCNK (UniProt P25490)	0.136	0.715
YBEY_P58557_41_FDLGIICVDNK (UniProt P58557)	-0.294	-0.279
XPO7_Q9UIA9_123_LGWFDCQK (UniProt Q9UIA9)	-0.42	0.232
ZBTB34_Q8NCN2_32_LCDIIVHIQGQPFR (UniProt Q8NCN2)	0.104	0.161
ZFAND1_Q8TCF1_79_ELVAVICPYCEK (UniProt Q8TCF1)	0.0327	0.281
ZEB2_O60315_583_MIENHNISTPFSCQFCK (UniProt O60315)	-0.236	-0.182
XPO4_Q9C0E2_723_ANLVIQCENWWNLAK (UniProt Q9C0E2)	0.102	-0.0501
ZDHHC6_Q9H6R6_295_EGCHQYSLTIEQLK (UniProt Q9H6R6)	0.0393	0.193
ZFAND2B_Q8WV99_134_HRHPLDHDCSGEGHPTSR (UniProt Q8WV99)	-0.148	0.178
ZC3H14_Q6PJT7_613_NGDECAYHHPISPCK (UniProt Q6PJT7)	0.136	0.16
ZDHHC21_Q8IVQ6_109_CGHCVR (UniProt Q8IVQ6)	0.082	-0.0198
YWHAQ_P27348_134_YLAEVACGDDRK (UniProt P27348)	-0.0719	0.0248
XRN2_Q9H0D6_21_KYPSIIVNCVEEKPK (UniProt Q9H0D6)	-0.134	0.0446
ZBTB2_Q8N680_296_VPLTLCSNAADLGK (UniProt Q8N680)	0.00267	-0.193
ZC3H14_Q6PJT7_622_NGDECAYHHPISPCK (UniProt Q6PJT7)	0.0775	-0.061
XRN1_Q8IZH2_1104_PLEQQHGVIPDRDAEFCLFDR (UniProt Q8IZH2)	0.195	-0.0163
XPO6_Q96QU8_723_AQVLVCR (UniProt Q96QU8)	0.0153	0.0471
ZCCHC3_Q9NUD5_348_THMSGSCTQDR (UniProt Q9NUD5)	0.151	-0.12
XPO5_Q9HAV4_605_HACSSIIK (UniProt Q9HAV4)	0.0117	-0.0217
YRDC_Q86U90_256_FGIIRPGCALESTTAILQQK (UniProt Q86U90)	-0.354	0.0352

Given in CSV form: entries from further up
Target,probe-labelled cysteine peptide fold change (10 µM),probe-labelled cysteine peptide fold change (50 µM)
ZC3H11A_O75152_209_QGECLNFGIK (UniProt O75152),-0.0872,-0.122
YARS_P54577_519_LGSISCK (UniProt P54577),-0.249,-0.105
YY1_P25490_390_IHTGDRPYVCPFDGCNK (UniProt P25490),0.136,0.715
YBEY_P58557_41_FDLGIICVDNK (UniProt P58557),-0.294,-0.279
XPO7_Q9UIA9_123_LGWFDCQK (UniProt Q9UIA9),-0.42,0.232

Additional results

Target	probe-labelled cysteine peptide fold change (10 µM)	probe-labelled cysteine peptide fold change (50 µM)
XRCC5_P13010_157_KCDISLQFFLPFSLGK (UniProt P13010)	-0.0246	0.157
XPO4_Q9C0E2_492_IAAEHCIPLLTSLLEER (UniProt Q9C0E2)	0.012	0.2
YWHAE_P62258_97+98_LICCDILDVLDK (UniProt P62258)	-0.0595	-0.303
YJU2_Q9BW85_275_AKADPDCSNGQPQAAPTPGAPQNR (UniProt Q9BW85)	0.0357	-0.323
XPO5_Q9HAV4_419_TDSPSCEYSR (UniProt Q9HAV4)	0.0519	0.555
ZBTB33_Q86T24_32_GHGLFCDVTVIVEDRK (UniProt Q86T24)	0.167	0.0822
ZFAND1_Q8TCF1_15_AELDIGQHCQVEHCR (UniProt Q8TCF1)	0.166	0.046
YTHDC2_Q9H6S0_788_LLAPVNCPIADFLMK (UniProt Q9H6S0)	-0.0326	-0.072
XRCC5_P13010_157_KCDISLQFFLPFSLGKEDGSGDRGDGPFR (UniProt P13010)	-0.0168	-0.586
YME1L1_Q96TA2_433_ANAPCVIFIDELDSVGGK (UniProt Q96TA2)	0.0564	0.26
ZC3H10_Q96K80_140_EEVPICR (UniProt Q96K80)	-0.106	0.152
YARS_P54577_67_AGCEVTILFADLHAYLDNMK (UniProt P54577)	0.259	0.586
ZC3H12B_Q5HYM0_361_KQPCPYGK (UniProt Q5HYM0)	-0.0664	0.0174
YEATS2_Q9ULM3_1173_SEDASCFSAK (UniProt Q9ULM3)	-0.295	-0.0796
YY1_P25490_385_IHTGDRPYVCPFDGCNKK (UniProt P25490)	-0.00426	-0.238
XXYLT1_Q8NBI6_350_LFHVLDCTWNR (UniProt Q8NBI6)	0.0185	0.0995
ZC3HAV1_Q7Z2W4_168_QQICNQQPPCSR (UniProt Q7Z2W4)	0.0782	-0.158
ZC3H13_Q5T200_1643_TTCHAPGHEK (UniProt Q5T200)	-0.253	-0.227
ZCRB1_Q8TBF4_67_DSAQNCTR (UniProt Q8TBF4)	-0.11	0.0217
XPO4_Q9C0E2_54_SPFAVCK (UniProt Q9C0E2)	0.0547	0.164
ZC3HAV1L_Q96H79_121_DCWSTCTLSHDIHTPVNMQVLK (UniProt Q96H79)	0.000846	-0.495
ZCCHC3_Q9NUD5_299_CEIELR (UniProt Q9NUD5)	0.203	0.323
XRN1_Q8IZH2_1487_LSNGLLVHGPQCHSENEAK (UniProt Q8IZH2)	0.144	-0.0844
ZDHHC5_Q9C0B5_245_VLCSSPAPR (UniProt Q9C0B5)	0.0101	-0.0764
ZBTB14_O43829_215_VNCYGQEVESMETPESK (UniProt O43829)	-0.181	-0.177
